Experimental data: PubChem BioAssay AID652243 (Drosophila RNAi Screening Center, 2013)
The screen tested about 24,000 reagents; shown is a random part of those that have a named target and a result. Over the whole deposit, 246 (1%) are marked active. 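Plates not normalised; calls are printed but the firefly/Renilla ratio behind them is not deposited; fold cut for lowering reported inconsistently.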 Raw values are not corrected between plates. A plus sign joins genes that one reagent is predicted to hit. Not given: the amount of reagent.

Aim: 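Knock-downs that decrease or increase androgen receptor reporter signal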 (primary screen)
System: Drosophila S2R+ cells
Reagents: long dsRNA against Drosophila genes
Time to read-out: 72 h (48 h, then 24 h hormone)
Treatment: synthetic androgen R1881 at 10 nM for 24 h
Read-out: 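Firefly light from an androgen-responsive reporter and Renilla control light per well, raw and unnormalised, for each of two replicates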
Reading the numbers: firefly reporter light: higher = more light from androgen-responsive reporter; Renilla control light: higher = more constitutive control signal (cell number, transfection)
Hit rule: 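Hit when the log firefly-to-Renilla ratio dropped or increased by a fixed fold versus the mean of GFP or LacZ controls across duplicate plates; lowering cut given as 1.5 and as 3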
Calls: active = hit: reporter lowered or raised; inactive = no hit

gene	DRSC id	firefly reporter light, replicate 1	firefly reporter light, replicate 2	Renilla control light, replicate 1	Renilla control light, replicate 2	activity call
CG34027	DRSC37751	7.49e5	6.23e5	1.90e6	1.76e6	inactive
CG3176 + CR18166 + CG32817	DRSC17271	8.64e5	6.56e5	6.87e5	4.15e5	inactive
CG3176 + CR18166 + CG32817	DRSC17282	9.63e5	6.85e5	5.05e5	2.18e5	inactive
CG3176 + CR18166 + CG32817	DRSC18288	1.25e5	87582	8.31e5	5.38e5	inactive
CG3176 + CR18166 + CG32817	DRSC28432	1.95e5	4.49e5	7.02e5	1.03e6	inactive
CG13457	DRSC10004	3.72e5	2.92e5	3.40e6	2.83e6	inactive
CG13457	DRSC29775	8.52e5	8.88e5	1.66e6	1.33e6	inactive
CG13305	DRSC24957	8.99e5	8.71e5	1.19e6	1.36e6	inactive
CG5421	DRSC02858	1.59e5	2.22e5	1.10e6	1.35e6	inactive
CG5421	DRSC24636	9.54e5	1.19e6	1.01e6	9.60e5	inactive
Pk34A	DRSC03398	3.48e5	3.33e5	2.23e6	2.27e6	inactive
Pk34A	DRSC28021	6.69e5	5.57e5	1.39e6	1.16e6	inactive
Pk34A	DRSC37044					inactive
Rsph4a	DRSC04338	9.09e5	7.13e5	7.86e5	1.02e6	inactive
Rsph4a	DRSC28287	8.82e5	1.25e6	1.33e6	2.02e6	inactive
Wdr59	DRSC02771	1.51e6	1.24e6	4.11e6	3.33e6	inactive
CG1628	DRSC18109	98338	74448	5.77e5	5.16e5	inactive
zormin	DRSC07969	1.76e5	2.16e5	3.95e5	5.71e5	inactive
zormin	DRSC08210	1.30e5	1.93e5	1.04e6	1.04e6	inactive
zormin	DRSC08212	1.13e5	1.32e5	5.90e5	7.62e5	inactive
zormin	DRSC08213	67588	92507	7.13e5	7.76e5	inactive
zormin	DRSC08297	1.07e5	89091	1.11e6	1.15e6	inactive
zormin	DRSC22483	4.51e5	7.25e5	1.49e6	1.96e6	inactive
Xe7	DRSC12307	85763	84947	2.37e6	1.61e6	inactive
Npc1a	DRSC03378	1.68e5	1.19e5	8.17e5	7.78e5	inactive
CG8888	DRSC07294	8.27e5	7.97e5	1.26e6	9.42e5	inactive
CG8888	DRSC07295	7.05e5	4.38e5	2.04e6	2.46e6	inactive
ich	DRSC14448	84857	91813	1.62e6	1.77e6	inactive
ich	DRSC29647	3.48e5	4.99e5	1.26e6	1.26e6	inactive
nmd	DRSC02856	9.10e5	4.13e5	1.45e6	1.05e6	inactive
nmd	DRSC27985	5.84e5	4.63e5	2.08e6	1.55e6	inactive
CG11790	DRSC14390	71537	52040	7.33e5	6.17e5	inactive
Rcd1	DRSC07116	4.46e5	4.92e5	87403	1.24e5	inactive
Rcd1	DRSC23713	1.02e6	9.26e5	1.29e5	1.22e5	inactive
mbo	DRSC16123	85623	96156	4.96e5	8.94e5	inactive
CG30280	DRSC21761	6.31e5	5.97e5	1.78e6	2.08e6	inactive
Rrp45	DRSC20198	2.76e5	2.73e5	3.75e6	2.24e6	inactive
Rrp45	DRSC29319	8.58e5	8.20e5	1.46e6	1.46e6	inactive
RpLP1	DRSC00783	1.43e5	1.45e5	3.75e5	3.92e5	inactive
RpLP1	DRSC22145	3.55e5	4.09e5	3.78e5	4.52e5	inactive
RpLP1	DRSC23411	8.05e5	4.65e5	8.63e5	3.42e5	inactive

Not a retest: an excerpt of the list.
gene	DRSC id	firefly reporter light, replicate 1	firefly reporter light, replicate 2	Renilla control light, replicate 1	Renilla control light, replicate 2	activity call
Rcd1	DRSC23713	1.02e6	9.26e5	1.29e5	1.22e5	inactive
mbo	DRSC16123	85623	96156	4.96e5	8.94e5	inactive
